PubChem BioAssay AID652259 – Drosophila RNAi Screening Center | 2013
The deposit covers about 22,000 reagents; this is an unselected part of those that have a named target and a result. In the full data, 233 (1.1%) got an active call. 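Light values are raw, unnormalised plate reads; the ratio scores behind the reporter calls were not deposited.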 Reagents against one gene are numbered here. Reagent sequences are not shown. Not stated in the record: the amount of reagent, the time to read-out, the dose of the treatment.

Aim: 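Identify new Wingless signalling regulators in fly cells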 (primary screen)
Cells: Drosophila clone 8 imaginal disc epithelial cells
Reagents: long dsRNA against Drosophila genes
Conditions: pathway stimulated by co-transfected Wingless expression plasmid
Detection: 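Dual luciferase reads per well after Wingless plasmid stimulation: reporter firefly light and Renilla control light; activity is firefly divided by Renilla, a ratio not deposited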
Scale: firefly reporter light: higher = more Wg reporter light, before normalisation; Renilla control light: higher = more transfected or surviving cells
Active means: 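Strong candidates differ from their plate mean by at least two out of four per-plate statistical tests; weak candidates meet just one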
Meaning of the calls: active = candidate regulator (raises or lowers reporter); inactive = not a candidate

{"gene":"CG9411","reagent":1,"firefly reporter light, replicate 1":4076,"firefly reporter light, replicate 2":15075,"Renilla control light, replicate 1":1191,"Renilla control light, replicate 2":3191,"Call":"inactive"}
{"gene":"Daxx (Daxx-like protein)","reagent":1,"firefly reporter light, replicate 1":13003,"Renilla control light, replicate 1":6182,"Call":"inactive"}
{"gene":"Wnt6 (Wnt oncogene analog 6)","reagent":1,"firefly reporter light, replicate 1":3361,"firefly reporter light, replicate 2":7749,"Renilla control light, replicate 1":1040,"Renilla control light, replicate 2":3496,"Call":"inactive"}
{"gene":"Cdc6 (Cell division cycle 6)","reagent":1,"firefly reporter light, replicate 1":1965,"Renilla control light, replicate 1":1538,"Call":"inactive"}
{"gene":"SMC1 (Structural maintenance of chromosomes 1)","reagent":1,"firefly reporter light, replicate 1":26499,"Renilla control light, replicate 1":14961,"Call":"inactive"}
{"gene":"spi (spitz)","reagent":1,"firefly reporter light, replicate 1":2451,"firefly reporter light, replicate 2":7827,"Renilla control light, replicate 1":844,"Renilla control light, replicate 2":2612,"Call":"inactive"}
{"gene":"Liprin-alpha","reagent":1,"firefly reporter light, replicate 1":9056,"Renilla control light, replicate 1":3319,"Call":"inactive"}
{"gene":"CG8051","reagent":1,"firefly reporter light, replicate 1":10868,"Renilla control light, replicate 1":9756,"Call":"inactive"}
{"gene":"Taf6 (TBP-associated factor 6)","reagent":1,"reporter change call, replicate 1":"Wg reporter activity raised","firefly reporter light, replicate 1":19682,"Renilla control light, replicate 1":1463,"Call":"active"}
{"gene":"CG16711","reagent":1,"firefly reporter light, replicate 1":5488,"Renilla control light, replicate 1":2343,"Call":"inactive"}
{"gene":"Rad17","reagent":1,"firefly reporter light, replicate 1":8803,"Renilla control light, replicate 1":1954,"Call":"inactive"}
{"gene":"rhea","reagent":1,"firefly reporter light, replicate 1":1367,"firefly reporter light, replicate 2":7424,"Renilla control light, replicate 1":1120,"Renilla control light, replicate 2":3238,"Call":"inactive"}
{"gene":"CG3356","reagent":1,"firefly reporter light, replicate 1":11045,"Renilla control light, replicate 1":3543,"Call":"inactive"}
{"gene":"CG2701","reagent":1,"firefly reporter light, replicate 1":2199,"firefly reporter light, replicate 2":8432,"Renilla control light, replicate 1":931,"Renilla control light, replicate 2":2779,"Call":"inactive"}
{"gene":"RhoGAP15B (Rho GTPase activating protein at 15B)","reagent":1,"firefly reporter light, replicate 1":2132,"firefly reporter light, replicate 2":6755,"Renilla control light, replicate 1":963,"Renilla control light, replicate 2":2125,"Call":"inactive"}
{"gene":"RhoGAP15B (Rho GTPase activating protein at 15B)","reagent":2,"firefly reporter light, replicate 1":14953,"Renilla control light, replicate 1":8055,"Call":"inactive"}
{"gene":"tsg (twisted gastrulation)","reagent":1,"firefly reporter light, replicate 1":18513,"Renilla control light, replicate 1":8277,"Call":"inactive"}
{"gene":"CG32022","reagent":1,"firefly reporter light, replicate 1":1376,"firefly reporter light, replicate 2":5781,"Renilla control light, replicate 1":1306,"Renilla control light, replicate 2":2822,"Call":"inactive"}
{"gene":"CG6763","reagent":1,"firefly reporter light, replicate 1":15568,"Renilla control light, replicate 1":13965,"Call":"inactive"}
{"gene":"CG30094","reagent":1,"firefly reporter light, replicate 1":4.56e5,"firefly reporter light, replicate 2":4.57e5,"Renilla control light, replicate 1":1.25e5,"Renilla control light, replicate 2":1.14e5,"Call":"inactive"}
{"gene":"MtnD (Metallothionein D)","reagent":1,"firefly reporter light, replicate 1":5.41e5,"firefly reporter light, replicate 2":5.98e5,"Renilla control light, replicate 1":2.41e5,"Renilla control light, replicate 2":2.35e5,"Call":"inactive"}
{"gene":"CG14421","reagent":1,"firefly reporter light, replicate 1":26032,"Renilla control light, replicate 1":15765,"Call":"inactive"}
{"gene":"dpr17 (defective proboscis extension response 17)","reagent":1,"firefly reporter light, replicate 1":2400,"Renilla control light, replicate 1":736,"Call":"inactive"}
{"gene":"dpr17 (defective proboscis extension response 17)","reagent":2,"firefly reporter light, replicate 1":10717,"Renilla control light, replicate 1":1378,"Call":"inactive"}
{"gene":"dpr17 (defective proboscis extension response 17)","reagent":3,"firefly reporter light, replicate 1":17964,"Renilla control light, replicate 1":5040,"Call":"inactive"}
{"gene":"RpS5a (Ribosomal protein S5a)","reagent":1,"firefly reporter light, replicate 1":2384,"firefly reporter light, replicate 2":6066,"Renilla control light, replicate 1":1008,"Renilla control light, replicate 2":2592,"Call":"inactive"}
{"gene":"Dgat2 (Diacylglycerol O-acyltransferase 2)","reagent":1,"firefly reporter light, replicate 1":15220,"Renilla control light, replicate 1":4277,"Call":"inactive"}
{"gene":"CG33704","reagent":1,"firefly reporter light, replicate 1":12172,"Renilla control light, replicate 1":6806,"Call":"inactive"}
{"gene":"Rdh1 (Retinol dehydrogenase 1)","reagent":1,"firefly reporter light, replicate 1":8396,"Renilla control light, replicate 1":2368,"Call":"inactive"}
{"gene":"Capr (Caprin)","reagent":1,"firefly reporter light, replicate 1":6941,"Renilla control light, replicate 1":2443,"Call":"inactive"}
{"gene":"List (Lithium-inducible SLC6 transporter)","reagent":1,"firefly reporter light, replicate 1":5849,"Renilla control light, replicate 1":2283,"Call":"inactive"}
{"gene":"CecA1 (Cecropin A1)","reagent":1,"firefly reporter light, replicate 1":7564,"Renilla control light, replicate 1":3056,"Call":"inactive"}

Hits, of those listed so far:
{"gene":"Taf6 (TBP-associated factor 6)","reagent":1,"reporter change call, replicate 1":"Wg reporter activity raised","firefly reporter light, replicate 1":19682,"Renilla control light, replicate 1":1463,"Call":"active"}
